In US4297276A, “Thymosin beta 3 and beta 4” (Hoffman-La Roche Inc., priority 1980, dated 1981):
Not every detail of the peptide structures is certain; ends, links or a residue may be inferred. Ends that are not written are not given here.

What was measured:
[1] = test system: terminal deoxynucleotidyl transferase (TdT); experiment: In vitro induction of TdT in fraction B bone marrow cells from NIH Swiss nu/nu mice; format: cell-based; details: for TdT specific activity: peak I activity only, incubation 18 hours with 50 ng/ml
Description: The method of Raidt et al., J. Exp. Med. 128, 681 (1968) was used to fractionate different cell suspensions from spleen, thymus, lymph nodes or bone marrow. Four layers of cells were formed at the interfaces of the discontinuous BSA gradient: Fraction A between 10% and 23% BSA; fraction B between 23-26%; fraction C between 26-29%; and fraction D between 29-33% BSA. BSA (Path-O-Cyte 5, lots 25 and 26) was obtained from Miles Research Products (Elkhart, Ind.). Fractionated cells were washed three times in Ham's F-12 medium.
The procedure for enzyme extraction has been described previously by Pazmino et al., J. Immunol. 119, 494 (1977).
The TdT assay was adapted from Kung et al, J. Exp. Med. 141, 855 (1975). One unit of enzyme activity was defined as the amount catalyzing the incorporation of 1 pmol of dGTP into acid insoluble material per hour. The specific activity was calculated from the total enzyme activity recovered from phosphocellulose per 10^8 nucleated viable cells.
Ten daily injections of 100 μg were given intraperitoneally to six-week-old NIH Swiss nu/nu, which were sacrificed 24 hours after the last injection. For the in vitro induction experiments, cells were washed three times after BSA gradient fractionation in Ham's F-12 medium containing 100 U/ml penicillin, 100 μg/ml streptomycin and 10 μg/ml gentomycin. After being washed, cell concentrations were adjusted to 1×10^8 cells/dish in 20 ml of Ham's F-12 medium containing antibiotics, 5% fetal bovine serum (Flow Laboratories, Rockville, Md.) and different concentrations of thymosin or spleen fraction 5 or of any of the different peptides isolated from thymosin. After incubation for various periods of time, cells were collected, washed twice with Ham's F-12 and extracted as previously described for TdT activity.
The following peptides, isolated from thymosin, were assayed for their ability to induce TdT in vitro: α1, β1, β3, β4, and synthetic α-1. […]

E-rosette = details: cited from earlier work
[2] = test system: mixed lymphocyte response (MLR); details: cited from earlier work
[3] = from U.S. Pat. No. 4,079,127; cited from earlier work
MIF = details: cited from earlier work
mitogen = details: cited from earlier work

| Substance | TdT specific activity [1] | activity in E-rosette assay (E-rosette) | activity in mixed lymphocyte response (MLR) assay [2] | pI [3] | activity in MIF assay (MIF) | activity in mitogen assay (mitogen) | TdT induction ([1]; concentrations ranging from 2 to 200 ng/ml) | TdT specific activity ([1]; listed as α-1) |
| --- | --- | --- | --- | --- | --- | --- | --- | --- |
| Ac-SDAAVDTSSEITTKDLKEKKEVVEEAEN [Synthetic α-1, reference compound] | 3.0 picomoles 3HdGTP/hour/10^8 cel | – | – | – | – | – | – | – |
| Ac-SDAAVDTSSEITTKDLKEKKEVVEEAEN [Thymosin α1, thymosin α1] | – | active | not active | 4.0-4.3 | active | active | did not show any induction | 5.2 picomoles 3HdGTP/hour/10^8 cel |
